# At least one structure is not confirmed: it was looked up by name or label, or the drawing left a doubt.
# System: xylene topically applied mice
# Experiment: Anti-inflammatory assay: xylene-induced ear inflammation, ear weight and gross signs
# Format: in vivo
# Conditions: 1 mg/kg orally, 11 days; 2 hours after xylene; compared with xylene control mice
# Description: One-hundred thirty two 6-week male SPF/VAF CrljOri:CD1 [ICR] mice (OrientBio, Seungnam, Korea; body weight ranged in 29-32 g upon receipt) were prepared, and eight groups of 10 mice each were selected based on the body weights at 7 days after acclimatization based on the body weights (intact control: 33.88±1.11 g, ranged in 31.8˜35.4 g; Xylene treated mice: 33.85±1.32 g, ranged in 31.1-36.6 g), as follows. Animals husbandries were conducted as same as antitussive and expectorant assays. All laboratory animals were treated according to the national regulations of the usage and welfare of laboratory animals, and approved by the Institutional Animal Care and Use Committee in Daegu Haany University (Gyeongsan, Gyeongbuk, Korea) [DHU2016-036, Apr. 22, 2016; ANNEX V].
# AR, KOG and SKOG were orally administered as same as antitussive and expectorant assays, once a day for 11 days before xylene topical applications. […]
# Two hours after topical application of xylene, circular sections of induced ear were taken using a cork borer with a 7-mm diameter and weighed as absolute wet-weights, and then the relative weights (% of bodyweights) of the ears were calculated to reduce the differences from individual body weights, as follow Equation [2], in the current experiment. […]
structure (smiles),measurement,value
"C[C@@H]1C[C@H]2[C@@H]3CCC4=CC(=O)C=C[C@]4(C)[C@@]3(F)[C@@H](O)C[C@]2(C)[C@@]1(O)C(=O)CO [DEXA, dexamethasone]",xylene-induced ear redness and edema (gross),obvious decreases of the ear redness and edema
